PubChem BioAssay AID1259308 | NCATS – 2017
This is an unselected part of about 59,000 reagents tested. About 1,510 of all reagents (2.6%) count as active. 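Calls use total luciferase alone and ignore viability, so some active siRNAs may act by altering cell number.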 Unmarked entries are inactive. The numbers tell different reagents against one gene apart. Not all columns of the deposit are shown. No sequences are given here.

Assay: 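Knock-downs that increase output of a recombinant reporter protein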 (primary screen)
System: human HEK293 embryonic kidney cells stably expressing firefly luciferase (HEK-CMV-Luc2-Hygro)
Reagent: single siRNA against human genes, 0.8 pmol siRNA per well
Timing: 72 h
Measurement: 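Luciferase light (ONE-Glo) measured on one replicate plate set and viability (CellTiter-Glo) on the other, scaled to a negative control siRNA, with robust z-scores and luciferase per cell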
Scale: total luciferase, z-score: higher = more reporter protein produced
Rule for the call: 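Active when the median/MAD z-score for overall luciferase is greater than 3; a gene was taken forward for validation with new siRNAs if at least two of its three siRNAs passed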
Calls: active = raised luciferase; inactive = no rise

Knock-down of ZP4 (zona pellucida glycoprotein 4) #1 resulted in: total luciferase, z-score 1.87.
ZP4 (zona pellucida glycoprotein 4) #2 showed total luciferase, z-score 0.769.
Knock-down of ZP4 (zona pellucida glycoprotein 4) #3 gave: total luciferase, z-score 0.578.
Against GSK3A (glycogen synthase kinase 3 alpha) #1 the deposit lists total luciferase, z-score -0.154.
GSK3A (glycogen synthase kinase 3 alpha) #2 gave total luciferase, z-score 0.315.
Depletion of GSK3A (glycogen synthase kinase 3 alpha) #3 resulted in: total luciferase, z-score 0.182.
For PPARA (peroxisome proliferator activated receptor alpha) #1, the entry reads total luciferase, z-score 1.84.
PPARA (peroxisome proliferator activated receptor alpha) #2 scored total luciferase, z-score 1.69.
With knock-down of PPARA (peroxisome proliferator activated receptor alpha) #3, the record shows total luciferase, z-score 0.0857.
For ZFP28 (ZFP28 zinc finger protein) #1, the entry reads total luciferase, z-score -0.945.
ZFP28 (ZFP28 zinc finger protein) #2 gave total luciferase, z-score 1.28.
Knock-down of ZFP28 (ZFP28 zinc finger protein) #3 gave: total luciferase, z-score 1.42.
For IZUMO1 (izumo sperm-oocyte fusion 1) #1, the entry reads total luciferase, z-score -0.365.
IZUMO1 (izumo sperm-oocyte fusion 1) #2 showed total luciferase, z-score -0.349.
After knock-down of IZUMO1 (izumo sperm-oocyte fusion 1) #3 the results were total luciferase, z-score 0.555.
For CHMP4B (charged multivesicular body protein 4B) #1, the entry reads total luciferase, z-score 0.238.
CHMP4B (charged multivesicular body protein 4B) #2 showed total luciferase, z-score 1.08.
Depletion of CHMP4B (charged multivesicular body protein 4B) #3 resulted in: total luciferase, z-score 3.05 (active).
Silencing of H3C6 (H3 clustered histone 6) #1 resulted in: total luciferase, z-score -1.25.
H3C6 (H3 clustered histone 6) #2 scored total luciferase, z-score 1.36.
H3C6 (H3 clustered histone 6) #3 gave total luciferase, z-score 1.02.

3 of these entries, reformatted.
| gene knocked down | siRNA no. | total luciferase, z-score |
| --- | --- | --- |
| CHMP4B (charged multivesicular body protein 4B) | 1 | 0.238 |
| CHMP4B (charged multivesicular body protein 4B) | 2 | 1.08 |
| CHMP4B (charged multivesicular body protein 4B) | 3 | 3.05 (active) |
